# About 820 (0.21%) of roughly 390,000 compounds were called active. The inconclusive results got no clear call from the source; some entries with a clear call stand among them for comparison. The call rests on the fitted dose curve; in most records, active means well fitted inhibition curve with a large enough effect; inconclusive means small, poorly fitted or top-dose-only effect, or another doubt; inactive means no such curve, though single readings can be large or run the other way. A potency beside an inconclusive call is a rough fit, not a confirmed value.
# Protein sequences, listed by entry. Tags and fused reporters are not part of them.
# UniProt Q92830, whole entry, looked up: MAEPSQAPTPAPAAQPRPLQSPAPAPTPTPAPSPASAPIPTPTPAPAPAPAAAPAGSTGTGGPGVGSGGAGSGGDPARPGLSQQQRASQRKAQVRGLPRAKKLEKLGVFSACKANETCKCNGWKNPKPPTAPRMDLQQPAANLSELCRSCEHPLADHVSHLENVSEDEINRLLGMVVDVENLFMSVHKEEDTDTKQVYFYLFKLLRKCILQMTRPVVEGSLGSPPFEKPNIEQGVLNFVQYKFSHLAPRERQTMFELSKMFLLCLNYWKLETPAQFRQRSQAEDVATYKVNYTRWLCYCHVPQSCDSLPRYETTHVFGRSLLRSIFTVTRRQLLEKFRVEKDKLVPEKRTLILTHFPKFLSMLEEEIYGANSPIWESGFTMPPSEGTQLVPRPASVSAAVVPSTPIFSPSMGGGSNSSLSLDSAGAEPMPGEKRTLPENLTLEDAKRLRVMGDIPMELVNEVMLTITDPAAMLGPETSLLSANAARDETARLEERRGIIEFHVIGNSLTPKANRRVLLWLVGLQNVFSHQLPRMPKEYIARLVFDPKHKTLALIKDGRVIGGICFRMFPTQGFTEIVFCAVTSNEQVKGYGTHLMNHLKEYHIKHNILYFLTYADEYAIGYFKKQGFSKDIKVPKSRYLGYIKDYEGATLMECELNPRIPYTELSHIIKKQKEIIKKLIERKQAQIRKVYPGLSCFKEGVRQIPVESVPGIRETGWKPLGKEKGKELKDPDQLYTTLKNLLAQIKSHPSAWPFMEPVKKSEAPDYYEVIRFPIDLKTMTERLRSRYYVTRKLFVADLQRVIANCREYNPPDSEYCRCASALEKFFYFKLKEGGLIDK
# Biological target: Histone acetyltransferase KAT2A (Homo sapiens) (UniProt Q92830)
# Assay: qHTS Assay for Inhibitors of GCN5L2
# Details: GCN5L2 HAT assay, ThioGlo1 CoA-SH fluorescence; series mostly up to 58.9 µM
# Outline: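 Compounds, pin-transferred from DMSO stocks, meet 20nM GCN5L2 for 15 min before the reaction begins with H3(1-25) peptide (75uM) and acetyl-CoA (70uM). Thiol-reactive ThioGlo1 reports CoA release over 20 min at room temperature.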
# Potency means the concentration at half of the fitted maximal effect.
row,Compound,Potency
1,O=C(N/N=C/c1ccccc1)c1ccc(CN2C(=O)c3cccc4cccc2c34)cc1,inactive
2,CC(C)c1cccc(C(C)C)c1NS(=O)(=O)c1cccs1,inactive
3,COc1cc(-c2nnc(COc3ccc4ccccc4c3)o2)cc(OC)c1OC,"inconclusive: 28.2 µM [inhibitor, single point]"
4,CCCCCc1nnc(NC(=O)Cc2cccs2)s1,"inconclusive: 35.5 µM [inhibitor, single point]"
5,CCN(CC)CCN(C(=O)CCS(=O)(=O)c1ccccc1)c1nc2cc(C)cc(C)c2s1,inactive
6,O=C(O)C1CN(CCCP(=O)(O)O)CCN1 (centres undefined),"inconclusive: 39.8 µM [inhibitor, single point]"
7,Cc1ccc(N2CC(C(=O)N3CCC(C(=O)Nc4nnc(C(C)C)s4)CC3)CC2=O)cc1 (centres undefined),"inconclusive: 14.1 µM [inhibitor, partial curve]"
8,Cc1cccc(/C=C/C(=O)c2ccc([N+](=O)[O-])o2)c1,"inconclusive: 28.2 µM [inhibitor, single point]"
9,Cc1cccc(NC(=O)N(C)Cc2cccs2)c1,active: 31.6 µM
10,COc1ccc2[nH]c3c(=O)n(CCCCC(=O)N4CCCC4)c(=S)[nH]c3c2c1,inactive
11,CC(NC(=O)COc1ccc(Oc2ccccc2)cc1)C(=O)O (centres undefined),inactive
12,O=C(NCCc1cccs1)C(c1ccccc1)c1ccccc1,inactive
13,CC(=O)c1ccc(N2CCN(C(=O)C3CCCN(S(=O)(=O)c4c(C)[nH]c(=O)[nH]c4=O)C3)CC2)cc1 (centres undefined),inactive
14,Cn1cccc1CNC(=S)Nc1cc(F)cc(F)c1,inactive
15,O=C(NCc1ccc(Cl)cc1)C(=O)NCC1OCCN1S(=O)(=O)c1cc(F)ccc1F (centres undefined),"inconclusive: 0.141 µM [inhibitor, full curve, poor fit]"
16,CCC(C)NC(=O)C1CCC(=O)N1Cc1ccc(C)cc1 (centres undefined),"inconclusive: 0.708 µM [inhibitor, full curve, poor fit]"
17,CC(=O)N1c2ccc(S(=O)(=O)NCCC(=O)Nc3ccc(C)cc3Br)cc2CC1C (centres undefined),inactive
18,COc1ccc(C(=O)COC(=O)/C=C/c2ccccc2)c(OC)c1,"inconclusive: 25.1 µM [inhibitor, single point]"
19,O=C1C(=O)N(Cc2cccs2)c2ccccc21,inactive
20,O=C(CN1C(=O)CC(c2ccco2)Sc2ccccc21)NCC1CCCO1 (centres undefined),inactive
21,COCCn1c(-c2cccc(Br)c2)nc2c(c(=O)c3ccccc3n2C)c1=O,"inconclusive: 39.8 µM [inhibitor, single point]"
22,CCCCC(=O)Nc1ccc(C(=O)NNC(=O)c2ccc(C)c(Br)c2)cc1,inactive
23,Cc1oc2cc(O)ccc2c(=O)c1-c1nncn1-c1ccccc1,inactive
24,CC(C)N(C(=S)NCc1ccccc1)c1ccccc1,inactive
25,CN(c1ccc(Cl)cc1)c1cc(=O)n(C)c2ccccc12,inactive

# Four compounds drawn at random from the list so far, as already listed:
row,Compound,Potency
6,O=C(O)C1CN(CCCP(=O)(O)O)CCN1 (centres undefined),"inconclusive: 39.8 µM [inhibitor, single point]"
13,CC(=O)c1ccc(N2CCN(C(=O)C3CCCN(S(=O)(=O)c4c(C)[nH]c(=O)[nH]c4=O)C3)CC2)cc1 (centres undefined),inactive
16,CCC(C)NC(=O)C1CCC(=O)N1Cc1ccc(C)cc1 (centres undefined),"inconclusive: 0.708 µM [inhibitor, full curve, poor fit]"
17,CC(=O)N1c2ccc(S(=O)(=O)NCCC(=O)Nc3ccc(C)cc3Br)cc2CC1C (centres undefined),inactive

# Additional records follow:

row,Compound,Potency
1,Cc1ccc(-n2ncc3c2CC(C)(C)CC3NC(=O)CCn2cncn2)cc1 (centres undefined),"inconclusive: 35.5 µM [inhibitor, single point]"
2,N/C(=N\OC(=O)c1ccc(Cl)cc1Cl)c1ccccn1,inactive
3,Cn1cc(CN2CCN(Cc3cccnc3)CC2)c(-c2ccc3c(c2)OCCO3)n1,"inconclusive: 39.8 µM [inhibitor, single point]"
4,CCc1ccc(/C=C2/SC(=S)NC2=O)cc1,"inconclusive: 25.1 µM [inhibitor, single point]"
5,COc1ccc(N2C(=O)/C(=C/c3cccs3)NC2=S)cc1,"inconclusive: 28.2 µM [inhibitor, single point]"
6,O=C(Nc1c2c(nn1-c1cccc(Cl)c1)CS(=O)(=O)C2)c1ccco1,inactive
7,Cc1c(C(=O)NC(=S)Nc2ccc(NC(=O)c3cccs3)cc2)oc2ccccc12,"inconclusive: 25.1 µM [inhibitor, single point]"
8,Cc1ccc(-c2nnc(Nc3ccc4c(c3)nc(C)n4C)c3ccccc23)cc1,"inconclusive: 39.8 µM [inhibitor, single point]"
9,O=C(NCCCN1CCN(c2ccccc2)CC1)c1cc2c(s1)-c1ccccc1OC2,"inconclusive: 31.6 µM [inhibitor, single point]"
10,O=C1N=C(N2CCOCC2)S/C1=C\c1ccc(OS(=O)(=O)c2ccccc2)cc1,"inconclusive: 6.31 µM [inhibitor, single point]"
11,Cc1ccc(S(=O)(=O)N2CCc3cc4c(cc3C2C)OCCCO4)cc1 (centres undefined),"inconclusive: 39.8 µM [inhibitor, single point]"
12,Cc1cc(-c2cc(-c3ccc(Cl)cc3)nc(N)c2C#N)co1,"inconclusive: 39.8 µM [inhibitor, single point]"
13,COc1ccc(-c2nnc(SCC(=O)NCC3CCCO3)n2C)cc1 (centres undefined),"inconclusive: 39.8 µM [inhibitor, single point]"
14,COc1ccc2c(C)cc(C)nc2n1,inactive
15,CN(C)CCCOC(=O)c1sc2ccccc2c1Cl,"inconclusive: 39.8 µM [inhibitor, single point]"
16,Cc1ccc(C2=NN(CC(=O)O)C(=O)CC2)cc1,inactive
17,CC(=O)Nc1ccc2c(CN3C(=O)NC(C)(c4ccc(C)cc4)C3=O)cc(=O)oc2c1 (centres undefined),"inconclusive: 0.708 µM [inhibitor, single point]"
18,CC1CN(C(=O)c2ccc(NS(=O)(=O)c3ccc(C(C)(C)C)cc3)cc2)CC(C)O1 (centres undefined),"inconclusive: 2.51 µM [inhibitor, full curve, poor fit]"
19,CC(C)(Cc1c[nH]c2ccccc12)NCC(O)COc1ccccc1C#N (centres undefined),"inconclusive: 8.91 µM [inhibitor, single point]"
20,CCC1OC(=O)C[C@@H](O)[C@H](C)[C@@H](OC2OC(C)CC(N(C)C)C2O)[C@@H](CC=O)C[C@@H](C)C(=O)/C=C/[C@]2(C)OC2C1C (some centres undefined),inactive
21,COC(=O)c1cnn(-c2ccc(F)cc2F)c1/C=N/NC(N)=S,inactive
22,O=C1NN(c2ccc(Cl)c(Cl)c2)C(=O)/C1=C/c1ccc(-c2ccccc2C(=O)O)o1,"inconclusive: 0.891 µM [inhibitor, full curve, poor fit]"
23,CNC(=S)NNC(=O)c1cccn(Cc2ccc(Cl)c(Cl)c2)c1=O,"inconclusive: 39.8 µM [inhibitor, single point]"
24,Cc1ccc(C(=O)O)cc1-c1ccc(/C=C2\SC(=O)N(CC(=O)Nc3ccccc3)C2=O)o1,inactive
25,CC1(c2nnc(Cc3ccccc3)o2)CC(c2ccccc2[N+](=O)[O-])=NO1 (centres undefined),"inconclusive: 22.4 µM [inhibitor, single point]"

row,Compound,Potency
1,CSc1ccccc1NC(=O)C1=CC(c2ccc3c(c2)OCO3)=NS(=O)(=O)N1C,inactive
2,NS(=O)(=O)c1ccc(CNC(=O)c2cc(-c3ccccn3)nc3ccc(Cl)cc23)cc1,inactive
3,Cc1nn(-c2ccccc2)c2nc(N)c(C#N)c(-c3ccc(O)c(O)c3)c12,"inconclusive: 7.08 µM [inhibitor, single point]"
4,O=C1CC(c2ccccc2)CC(O)=C1C=NC1CCCCCC1 (centres undefined),"inconclusive: 8.91 µM [inhibitor, single point]"
5,COc1ncc2nc(CCc3ccccc3)c(=O)n(Cc3cccs3)c2n1,inactive
6,CCOc1cc(/C=N\NC(=O)CN2CCOCC2)ccc1OCc1ccc(F)cc1,inactive
7,CCS(=O)(=O)c1ccc(O)c(NC(=O)/C=C/c2ccccc2)c1,inactive
8,O=C(NNc1c(Cl)cccc1Cl)c1sccc1Cl,"inconclusive: 39.8 µM [inhibitor, single point]"
9,COc1ccc(-c2noc(CCC(=O)NCC3CCCO3)n2)cc1 (centres undefined),"inconclusive: 0.891 µM [inhibitor, full curve, poor fit]"
10,CCCCn1cnc2c1c(=O)[nH]c(=O)n2CCCC,inactive
11,Cc1ccn2c(=O)nc(SCC(=O)OCc3ccccc3)nc2c1,"inconclusive: 28.2 µM [inhibitor, single point]"
12,CCc1nnc(NC(=O)Nc2ccc(Cl)cc2)s1,"inconclusive: 8.91 µM [inhibitor, single point]"
13,COc1ccc(C(C(=O)NC2CCCC2)N(C(=O)c2ccoc2C)c2cc(C)cc(C)c2)cc1 (centres undefined),"inconclusive: 1 µM [inhibitor, single point]"
14,COc1ccc2[nH]cc(C3N4CC5(C)CN3CC(C)(C4)C5=O)c2c1 (centres undefined),"inconclusive: 39.8 µM [inhibitor, single point]"
15,CC1=C(C(=O)Nc2ccccc2)C(c2ccc(C(=O)O)cc2)n2nc(SCC(=O)c3ccc(C)cc3)nc2N1 (centres undefined),inactive
16,CC1=CC(=C2C(=O)c3ccccc3C2=O)C=C(C)N1Cc1ccco1,inactive
17,Cn1c(C(=O)N2CCN(C3CCCCC3)CC2)cc2c(=O)n(C)c3ccccc3c21,"inconclusive: 6.31 µM [inhibitor, single point]"
18,O=C(c1cc2ccccc2oc1=O)N(Cc1ccccc1)C1CCS(=O)(=O)C1 (centres undefined),"inconclusive: 28.2 µM [inhibitor, single point]"
19,COc1ccc(-c2cn[nH]c2-c2ccc(OCc3ccc(F)cc3)cc2O)cc1OC,inactive
20,Cc1ccc(CSc2nc(=O)c3c(C)cc(C)nc3n2C2CC2)cc1,inactive
21,CC(C)c1ccc(N=c2c([N+](=O)[O-])nn(-c3ccc4c(c3)OCCO4)n2O)cc1,inactive
22,COc1ccc(NS(=O)(=O)c2cccc(-c3n[nH]c(=S)n3Cc3ccccc3)c2)cc1,inactive
23,CN(C)CCNc1nc(-c2ccccc2)nnc1C(F)(F)F,"inconclusive: 0.631 µM [inhibitor, single point]"
24,Cc1nn2c(=O)cc(CSCC(=O)Nc3ccccc3F)nc2s1,"inconclusive: 2.24 µM [inhibitor, partial curve]"

# From PubChem BioAssay AID504327 (National Center for Advancing Translational Sciences (NCATS), 2011)
